The text below walks through data of PubChem BioAssay AID1347423 (Functional Genomics Laboratory (NCATS/FGL), 2020).

In all, about 52,000 sequences went through this assay and about 210 (0.4%) were called active.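 How the source made its calls: active means gene whose silencing raises cell survival under the drug, median off-target-corrected z-score across its silencing RNAs 2 or more; inactive means the rest.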 This is one part of the list.

The experiment in a line: Resistance to Poly (ADP-Ribose) Polymerase inhibitor: Gene Identification via Genome-wide siRNA Screen. Conditions: mouse BRCA2 R2336H ES cells, olaparib, CellTiter-Glo viability; stronger effect = higher value. Summed up: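 Mouse BRCA2 R2336H ES cells were reverse-transfected with siRNA (20 nM final), treated at 48 h with 500 nM olaparib, and read by CellTiter-Glo after 72 h. Scores: MAD-based z per siRNA, median per gene, seed off-target correction.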
“CCAGUGAUAACUCUCUUGUTT against A830039N20Rik”: the z-score is inactive: -0.905.
Turning to CCGAAAAUGGUAAAUAACUTT against Rnf17, the z-score was inactive: -0.717.
Next, GGUGCUUGUUUAAAUGGUUTT against Slc19a1: inactive: 0.329.
The value for GCACAGUACUAUCUCGGCATT against Ttc4 was inactive: 0.293.
The value for GGGUGGGAGACGAAGAUAATT against Usp17 was inactive: -1.53; that for CCAAGGACACUAUACAAAUTT against Fank1 was inactive: -0.0621.
On to CCAAGAAAGACCGUGUGAATT against Hdh, for which the z-score was inactive: -2.21.
The value for GGCAGUUCUUUGUAUUAAATT against Dhcr7 was inactive: 0.863.
Next, GGAGCUGUUUGACAGUUUUTT against Nin: inactive: -0.38.
“GGAUCACUUUGACCACAACTT against 1700093E07Rik”: the z-score is inactive: 0.14.
With “GGAACAGGACUUUUGAUAATT against 2700050F09Rik”, the z-score was active: 1.03.
For the sequence GGAAAAGAAACACAUCUGGTT against Col2a1, the z-score was inactive: 1.6.
On to CCUGGCAUUUGGAGCAUUCTT against Olfr1154, for which the z-score was inactive: -0.497.
For GCAUUACAAAUUGUCUACATT against Ugdh, the z-score is inactive: -0.304.
Next, GGAUGAGCAGAGCAUCUGUTT against BC050188: inactive: 1.3.
Next, “CGCAGUGAUUAUGACCUCCTT against 1700023E05Rik”: inactive: 0.865; GGAAGGAAAACCUUUCAACTT against Cyp2j6: inactive: -0.712; GGCUCAGAAUUGAUCCUAUTT against Mjd: inactive: 0.565.
For “GGCGGAAUCACAUCACUUCTT against A030007L22”, the z-score was inactive: 0.322.
As to GCGAGAUGCGUUCAUGGACTT against P140, the z-score was inactive: 0.434.
As to GGUCUACUCUUCAUAUCGCTT against Rab3d, the z-score is inactive: 1.18.
On to GGCAUGAGCGAGUUAAACCTT against Usp53, for which the z-score was inactive: 1.14.
Take “GCAGAUGAUACCUGGGCAATT against 1110061O04Rik”: the z-score is inactive: -0.936.
In the case of CCAGCCAUAUCAACCGUAUTT against Prosapip1, the z-score was inactive: -0.0677.
The value for GCAUCAUUUUAACACUUCUTT against Tubd1 was inactive: 0.632.
Take “CCGCAUACCUCUAAGGUAGTT against 1300013D05Rik”: the z-score was inactive: 0.372.
Next, CGAUGUACUGUCUCUUUUGTT against Ywhaz: inactive: 1.53; GGUGAAGGCUGACCGAGAUTT against Rps14: inactive: -3.23; “GCCUAGCAAUGACUGGGAUTT against 0610038F07Rik”: inactive: 0.22.
With “CCUCACACUUCACUACUGATT against 2400006N03Rik”, the z-score is inactive: -1.52.
Regarding CCCUGAUUGAUCGGUCUUGTT against MGC68340, the z-score is inactive: -0.893.
In the case of “GGAGGUGAAACCAUAAAAATT against D3Ertd330e”, the z-score is inactive: -2.19.
The value for GGCUGAUGAUAAGCUGAUUTT against Letm1 was inactive: 0.443; that for GGAAUUGUUAAUUGUGGGATT against Stau2 was inactive: 0.207.
Regarding GGACAUUACCAGCUUGCUGTT against Nkd1, the z-score is inactive: 0.24.
For the sequence GGAUGCUCUAGUUCCAUUATT against Aym1, the z-score is inactive: 0.251.
With CCCAGGGAAACCUUAACUCTT against Pstpip1, the z-score is inactive: -0.263.
For the sequence GGGAAUUGCUCACCUCCAUTT against Klre1, the z-score was inactive: -0.871.
As for “GGACAUCCUCUUACAGUGGTT against 1810010M01Rik”, the z-score was inactive: -0.808.
Regarding CCCACUUUGACACGACACATT against Sertad1, the z-score is inactive: -0.769.
As for GGAACAGAAAGCUAUGGAUTT against Surf6, the z-score is inactive: -0.706.
For “GGUCUACGACCGAUGUUCUTT against 9530003J23Rik”, the z-score is inactive: -1.1.
Consider “GGCAUCUCCAAGAUGUUUCTT against 4931414L13Rik”, for which the z-score was inactive: 0.706.
The value for GCAAGACCGAAGUCACGGATT against Krt1-19 was inactive: 0.0699; that for CCAGGAGGAUACAAUCCCUTT against Rgs3 was inactive: -0.508.
Regarding GUCGCAUCUCCAAAAAUGGTT against Olfr340, the z-score was inactive: -1.44.
The value for GGACCAGUGUCUUAUUAAUTT against Osbpl8 was inactive: 0.0755; that for “CCCACCAAAUAAUUGGAAUTT against E130113K22Rik” was inactive: 0.254.
Next, “GCGUGCACACCUUUGAACUTT against 4930563M21Rik”: inactive: 0.272; GGAGAGAAGAAAGAAAAAGTT against Gps2: inactive: 0.239; GGUUAUGAGAAUCUAAGAUTT against Ypel5: inactive: -0.228.
The value for GGAAGAAGGCAGAAGAGUUTT against Ube2l6 was inactive: -0.483; that for GCAAGUCCUCUACCUUCUCTT against V1rh10 was inactive: -0.658.
With GGACUGAAGCAGUAUCAAGTT against Eaf2, the z-score is inactive: -0.122.
With GCAGUGCAGAUCGUUAUUGTT against Stx7, the z-score was inactive: 1.01.
Turning to CCCUGACCUUCAGAUUGUGTT against Olfr788, the z-score was inactive: 0.116.
For the sequence “GCUAGAAAUAGCCUUAGGUTT against B230106I24Rik”, the z-score is inactive: 0.435.
With “GGUCAGAAGAGUUUGCUAATT against 4933405A16Rik”, the z-score was inactive: 1.31.
“GCCUUGAAGUUCAAAGGAATT against 1700021I09Rik”: the z-score was inactive: 0.404.
As for GGUUUUAUUGCCUAAAAAGTT against Ankfy1, the z-score is inactive: 1.08.
As to “CGAUGAGCCUUUUAAUUGUTT against 9030612M13Rik”, the z-score was inactive: 1.49.
Consider GGUCGACCUAUUGGUAUUCTT against Oas1h, for which the z-score is inactive: -0.564.
The value for CGAAACUACCUUCUCAAGCTT against Jmjd1b was inactive: 0.636; that for “GCAAAUAAUGACGUGGCUATT against 4932432N11Rik” was inactive: 0.735; that for GGACUUUGUACAUUGUUUUTT against Actb was inactive: 1.63.
For CGGUCUGUGUAUGUUAAGATT against Upp2, the z-score was inactive: 0.729.
Take GGCAGUUCAUGUUUAAAGATT against Fgfr1op2: the z-score was inactive: 0.146.
For the sequence GGGAUGAAUCCUAUUAGUATT against Stau1, the z-score was inactive: -0.158.
Next, “GCAAGUCCUAGUGUCCUGATT against 5830445C04Rik”: inactive: -1.66; GGUAUGCUAUGAUCUUAACTT against Olfr561: inactive: 1.21; GCUCCAACACGAGAAGAAATT against Zfp598: inactive: -0.685.
For the sequence GUAGUGAAAGCUUUUGGGUTT against V1re2, the z-score was inactive: 0.0897.
The value for CCGGUUUCGAAAGAGAACUTT against Irs1 was inactive: 1.15; that for “GGGAUAAAGAUGAAGAACUTT against 2010200O16Rik” was inactive: -0.869; that for GGAAGGAGGACAGAGGAAUTT against Tmem19 was inactive: 1.22.
For GGUGAGCACUAAAUGCAGATT against Cldn16, the z-score is inactive: 0.00946.
As for GGAGUAGCUGUACUCAACATT against Olfr790, the z-score is inactive: -3.
Consider “GGAAUGAGAGAACUUGAUATT against 2610027O18Rik”, for which the z-score is inactive: -0.669.
Consider “GCAGCCUCAACAACAACCCTT against 3732413I11Rik”, for which the z-score was inactive: -0.44.
Take GGAAAUAUGCGAAAGCUGATT against Seh1l: the z-score was inactive: -2.34.
Regarding GGACUUUGAAAAGAGAAUUTT against Polb, the z-score was inactive: -0.703.
GAAAGUUUACGGGAAAUCUTT against Klf13: the z-score is inactive: 1.09.
Take “GGAAGUUAGUUUCGUUUUATT against 2610304G08Rik”: the z-score was inactive: -0.284.
As for “CCCAAGGAGUACAAUAAAATT against 4930432H15Rik”, the z-score was inactive: -0.0751.
As for “CAUUCGUUGAAGAAAGUGATT against MGI:2684414”, the z-score is inactive: -0.451.
With GGCUGAUUUUGAAAAGCAATT against Rdh5, the z-score is inactive: 0.92.
Take GCAUCACGGAUUCGAAUUGTT against Dgkz: the z-score is inactive: 0.883.
As for “GGUCCAUUAGCUAAAUCUUTT against C130067A03Rik”, the z-score is inactive: 0.757.
Turning to “GGUAUUCUAUAAGCUCCUUTT against 6030446I19Rik”, the z-score is inactive: -0.635.
Next, CCCAAUAAAACUUCCGGGATT against BC021608: inactive: 0.531; “GCAAUAGGAAGACCACUUATT against 5930416I19Rik”: inactive: -1.93.
“GCUGAACUAUCCCUUAGUGTT against E430018M08Rik”: the z-score is inactive: -0.0179.
Turning to GCCUGGUUACAGCAUUAACTT against BC057371, the z-score is inactive: 0.317.
For GGCAUCCUUGACAUAACCUTT against Olfr586, the z-score was inactive: -0.596.
The value for CGAACAGAAACAGUUAUUATT against Gbp2 was inactive: 0.769; that for GUAUCCUUUUUAUAGCCUATT against V1rb4 was inactive: 0.24; that for GCUAUGUGGCCAUAGAUUATT against Hemk1 was inactive: 1.85.
GGCCUUUGAUGACAUGUACTT against U46068: the z-score is inactive: -0.463.
For GGAAGACCCUUCUUAUGACTT against Fli1, the z-score was inactive: 0.174.
Consider “CCCUCAAGGAUUUAGCCAUTT against D030014N22Rik”, for which the z-score was inactive: 0.919.
In the case of GGAAUUUGAAGCUGUCACUTT against Spata2, the z-score is inactive: -1.71.
For “GGCUGGUUGGAAGGAAAAUTT against 6330505F04Rik”, the z-score was inactive: -1.69.
Turning to GGUCUUAGAUAAUGUUAGATT against Gpr26, the z-score is inactive: 0.245.
